# Test results from the supplement of paper PMC8728848.
# The list shows a part of the results.
# B1: NanH (Corynebacterium diphtheriae), C6JSW6 (protein)
# chain: MYSSNRTYSRAILGLSAVLTLSFTSLVAPVNAEEPETVVPATAELEGEVAATLPSAETGLLDAAPPKPVARGAAGDLQLPAVNEKEVFEEGRVIRAPEPDQSRCYRIPALVTAKNGDLLLAFDNRYGGGDGAKTWCRDAPYENMKRINRQNMQTDIQLYRSVDNGQSFEDFGYIAQGTADVRELSYTDPALVTDRTTGKIFAFFVRAYDYRVGQSSAGFNEGDVEAEIQKRDVQDTVVVESLDGGQTWGNMRLLSALTAKVSSISTGDTIFDGRGRFVTSGAGIQLQYGEHAGRLIVPISVDIDPKDSAKFINLAIYSDDHGQTWQAGIGTAGGAGFSGDVSKIVELSDGRLMMSSKDNDKPRWVSYSEDQGENWSTPKRKIIAPPQHPEKHNTGINVGLIRAYPNAPENSAAARVLLYSAPIDQRYSHKHTEDGRNNGWVMGSCDDGKTWSFGRQIEKNRFQYSSMTVMSDGNIGMVYESGDFSTGMNLKFAKFNMAWLGADCHSNEALGLTGDIDKEIVEAQEKAAEATKEAQEAAEKVQKLTEELAAARKENDELKNQVKGFKEAVGDLANEAEDLADKVFKLETAVTEAKEKATVAEKAASDAVTQLQKAESIAEEQKAKAESAAAEAQALREKLERLEGSILTVKENPEAEEIADLSSTAKDAADAARRAATDANGALSGQKQDEEKPAMGLMGILKVLAGIIPLVAIIATIFQTFRLPFNIPGMR
# Experiments:
# Assay in all cases: glycan array binding signal (z-score within array); higher = stronger binding
# Details in all cases: glycan notation: IUPAC condensed, linker removed
# [1] = molecular target: Gal3S(b1-3)[Fuc(a1-4)]GlcNAc
# Procedure, shortened: (§1)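 The binding signal is a Z-score computed within each array and averaged over linkers. Arrays of the same protein sequence at different concentrations or buffers were also averaged together. Data originate from 3228 arrays in the Consortium for Functional Glycomics database, kept only where the protein sequence was available.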
# [2] = molecular target: Gal3S(b1-4)Glc
# Procedure, shortened: as §1
# [3] = molecular target: Gal3S(b1-4)Glc6S
# Procedure, shortened: as §1
# [4] = molecular target: Gal3S(b1-4)GlcNAc
# Procedure, shortened: as §1
# [5] = molecular target: Gal3S(b1-4)GlcNAc6S
# Procedure, shortened: as §1
# [6] = molecular target: Gal3S(b1-4)[Fuc(a1-3)]Glc
# Procedure, shortened: as §1
# [7] = molecular target: Gal3S(b1-4)[Fuc(a1-3)]Glc6S
# Procedure, shortened: as §1
# [8] = molecular target: Gal3S4S(b1-4)GlcNAc
# Procedure, shortened: as §1
# [9] = molecular target: Gal3S6S(b1-4)GlcNAc
# Procedure, shortened: as §1
# [10] = molecular target: Gal3S6S(b1-4)GlcNAc6S
# Procedure, shortened: as §1
# [11] = molecular target: Gal4S(b1-4)GlcNAc
# Procedure, shortened: as §1
# [12] = molecular target: Gal4S6S(b1-4)GlcNAc
# Procedure, shortened: as §1
# [13] = molecular target: Gal6S(b1-3)GlcNAc
# Procedure, shortened: as §1
# [14] = molecular target: Gal6S(b1-3)GlcNAc6S
# Procedure, shortened: as §1
# [15] = molecular target: Gal6S(b1-4)Glc
# Procedure, shortened: as §1
# [16] = molecular target: Gal6S(b1-4)Glc6S
# Procedure, shortened: as §1
# [17] = molecular target: Gal6S(b1-4)GlcNAc
# Procedure, shortened: as §1
# [18] = molecular target: Gal6S(b1-4)GlcNAc6S
# Procedure, shortened: as §1
# [19] = molecular target: GalNAc(a1-3)Gal
# Procedure, shortened: as §1
# [20] = molecular target: GalNAc(a1-3)GalNAc
# Procedure, shortened: as §1
# [21] = molecular target: GalNAc(a1-3)GalNAc(b1-3)Gal(a1-4)Gal(b1-4)Glc
# Procedure, shortened: as §1
# [22] = molecular target: GalNAc(a1-3)GalNAc(b1-3)Gal(a1-4)Gal(b1-4)GlcNAc
# Procedure, shortened: as §1
# [23] = molecular target: GalNAc(b1-3)Gal
# Procedure, shortened: as §1
# [24] = molecular target: GalNAc(b1-3)Gal(a1-4)Gal(b1-4)GlcNAc
# Procedure, shortened: as §1
# [25] = molecular target: GalNAc(b1-3)Gal(a1-4)Gal(b1-4)GlcNAc(b1-3)Gal(b1-4)Glc
# Procedure, shortened: as §1
# [26] = molecular target: GalNAc(b1-3)Gal(a1-6)Gal(b1-4)Glc
# Procedure, shortened: as §1
# [27] = molecular target: GalNAc(b1-3)GalNAc
# Procedure, shortened: as §1
# [28] = molecular target: GalNAc(b1-4)Gal(b1-4)Glc
# Procedure, shortened: as §1
# [29] = molecular target: GalNAc(b1-4)GlcNAc
# Procedure, shortened: as §1
# [30] = molecular target: GalNAc(b1-4)GlcNAc(b1-2)Man(a1-3)[GalNAc(b1-4)GlcNAc(b1-2)Man(a1-6)]Man(b1-4)GlcNAc(b1-4)GlcNAc
# Procedure, shortened: as §1
# [31] = molecular target: GalNAc(b1-6)GalNAc
# Procedure, shortened: as §1
# [32] = molecular target: Glc(a1-4)Glc
# Procedure, shortened: as §1
# [33] = molecular target: Glc(a1-4)Glc(a1-4)Glc(a1-4)Glc
# Procedure, shortened: as §1
# [34] = molecular target: Glc(a1-6)Glc(a1-6)Glc
# Procedure, shortened: as §1
# [35] = molecular target: Glc(a1-6)Glc(a1-6)Glc(a1-6)Glc
# Procedure, shortened: as §1
# [36] = molecular target: Glc(b1-4)Glc
# Procedure, shortened: as §1
# [37] = molecular target: Glc(b1-6)Glc
# Procedure, shortened: as §1
# [38] = molecular target: GlcA(b1-3)Gal
# Procedure, shortened: as §1
# [39] = molecular target: GlcA(b1-3)GlcNAc
# Procedure, shortened: as §1
# [40] = molecular target: GlcA(b1-6)Gal
# Procedure, shortened: as §1
# [41] = molecular target: GlcNAc(a1-3)Gal(b1-4)GlcNAc
# Procedure, shortened: as §1
# [42] = molecular target: GlcNAc(a1-4)Gal(b1-3)GlcNAc
# Procedure, shortened: as §1
# [43] = molecular target: GlcNAc(a1-4)Gal(b1-4)GalNAc
# Procedure, shortened: as §1
# [44] = molecular target: GlcNAc(a1-4)Gal(b1-4)GlcNAc
# Procedure, shortened: as §1
# [45] = molecular target: GlcNAc(a1-4)Gal(b1-4)GlcNAc(b1-3)Gal(b1-4)Glc
# Procedure, shortened: as §1
# [46] = molecular target: GlcNAc(a1-4)Gal(b1-4)GlcNAc(b1-3)Gal(b1-4)GlcNAc
# Procedure, shortened: as §1
# [47] = molecular target: GlcNAc(a1-4)Gal(b1-4)GlcNAc(b1-3)Gal(b1-4)GlcNAc(b1-3)Gal(b1-4)GlcNAc
# Procedure, shortened: as §1
# [48] = molecular target: GlcNAc(a1-4)Gal(b1-4)GlcNAc(b1-3)Gal(b1-4)[Fuc(a1-3)]GlcNAc(b1-3)Gal(b1-4)[Fuc(a1-3)]GlcNAc
# Procedure, shortened: as §1
# [49] = molecular target: GlcNAc(a1-6)Gal(b1-4)GlcNAc
# Procedure, shortened: as §1
# [50] = molecular target: GlcNAc(b1-2)Gal(b1-3)GalNAc
# Procedure, shortened: as §1
# [51] = molecular target: GlcNAc(b1-2)Man(a1-3)[GlcNAc(b1-2)Man(a1-6)]Man(b1-4)GlcNAc(b1-4)GlcNAc
# Procedure, shortened: as §1
# [52] = molecular target: GlcNAc(b1-2)Man(a1-3)[GlcNAc(b1-2)Man(a1-6)]Man(b1-4)GlcNAc(b1-4)[Fuc(a1-6)]GlcNAc
# Procedure, shortened: as §1
# [53] = molecular target: GlcNAc(b1-2)Man(a1-3)[GlcNAc(b1-4)][GlcNAc(b1-2)Man(a1-6)]Man(b1-4)GlcNAc(b1-4)GlcNAc
# Procedure, shortened: as §1
# [54] = molecular target: GlcNAc(b1-2)[GlcNAc(b1-4)]Man(a1-3)[GlcNAc(b1-2)Man(a1-6)]Man(b1-4)GlcNAc(b1-4)GlcNAc
# Procedure, shortened: as §1
# [55] = molecular target: GlcNAc(b1-2)[GlcNAc(b1-4)]Man(a1-3)[GlcNAc(b1-4)][GlcNAc(b1-2)Man(a1-6)]Man(b1-4)GlcNAc(b1-4)GlcNAc
# Procedure, shortened: as §1
# [56] = molecular target: GlcNAc(b1-2)[GlcNAc(b1-4)]Man(a1-3)[GlcNAc(b1-4)][GlcNAc(b1-2)[GlcNAc(b1-6)]Man(a1-6)]Man(b1-4)GlcNAc(b1-4)GlcNAc
# Procedure, shortened: as §1
# [57] = molecular target: GlcNAc(b1-2)[GlcNAc(b1-6)]Man(a1-6)[GlcNAc(b1-2)Man(a1-3)]Man(b1-4)GlcNAc(b1-4)GlcNAc
# Procedure, shortened: as §1
# [58] = molecular target: GlcNAc(b1-2)[GlcNAc(b1-6)]Man(a1-6)[GlcNAc(b1-2)Man(a1-3)][GlcNAc(b1-4)]Man(b1-4)GlcNAc(b1-4)GlcNAc
# Procedure, shortened: as §1
# [59] = molecular target: GlcNAc(b1-3)Gal
# Procedure, shortened: as §1
# [60] = molecular target: GlcNAc(b1-3)Gal(b1-3)GalNAc
# Procedure, shortened: as §1
binder,measurement,setting,value
B1,glycan array binding signal (z-score),[1],0.183
same,glycan array binding signal (z-score),[2],-1.3
same,glycan array binding signal (z-score),[3],-0.269
same,glycan array binding signal (z-score),[4],0.095
same,glycan array binding signal (z-score),[5],0.961
same,glycan array binding signal (z-score),[6],-0.457
same,glycan array binding signal (z-score),[7],-0.594
same,glycan array binding signal (z-score),[8],-0.482
same,glycan array binding signal (z-score),[9],-1.03
same,glycan array binding signal (z-score),[10],-0.789
same,glycan array binding signal (z-score),[11],-0.899
same,glycan array binding signal (z-score),[12],-0.823
same,glycan array binding signal (z-score),[13],-0.551
same,glycan array binding signal (z-score),[14],-0.653
same,glycan array binding signal (z-score),[15],1.75
same,glycan array binding signal (z-score),[16],-1.68
same,glycan array binding signal (z-score),[17],2.1
same,glycan array binding signal (z-score),[18],1.98
same,glycan array binding signal (z-score),[19],0.548
same,glycan array binding signal (z-score),[20],0.005
same,glycan array binding signal (z-score),[21],0.199
same,glycan array binding signal (z-score),[22],-0.537
same,glycan array binding signal (z-score),[23],-1.91
same,glycan array binding signal (z-score),[24],-0.371
same,glycan array binding signal (z-score),[25],-0.502
same,glycan array binding signal (z-score),[26],0.909
same,glycan array binding signal (z-score),[27],-0.064
same,glycan array binding signal (z-score),[28],-1.05
same,glycan array binding signal (z-score),[29],-0.431
same,glycan array binding signal (z-score),[30],3.38
same,glycan array binding signal (z-score),[31],0.018
same,glycan array binding signal (z-score),[32],-0.111
same,glycan array binding signal (z-score),[33],1.08
same,glycan array binding signal (z-score),[34],-1.2
same,glycan array binding signal (z-score),[35],0.286
same,glycan array binding signal (z-score),[36],-0.108
same,glycan array binding signal (z-score),[37],0.666
same,glycan array binding signal (z-score),[38],2.74
same,glycan array binding signal (z-score),[39],-0.065
same,glycan array binding signal (z-score),[40],0.869
same,glycan array binding signal (z-score),[41],1.88
same,glycan array binding signal (z-score),[42],-0.516
same,glycan array binding signal (z-score),[43],0.038
same,glycan array binding signal (z-score),[44],-0.292
same,glycan array binding signal (z-score),[45],-1.54
same,glycan array binding signal (z-score),[46],3.02
same,glycan array binding signal (z-score),[47],-1.05
same,glycan array binding signal (z-score),[48],3.97
same,glycan array binding signal (z-score),[49],0.173
same,glycan array binding signal (z-score),[50],-0.307
same,glycan array binding signal (z-score),[51],-0.396
same,glycan array binding signal (z-score),[52],0.133
same,glycan array binding signal (z-score),[53],-1.53
same,glycan array binding signal (z-score),[54],-1.03
same,glycan array binding signal (z-score),[55],-0.214
same,glycan array binding signal (z-score),[56],-0.562
same,glycan array binding signal (z-score),[57],0.537
same,glycan array binding signal (z-score),[58],0.129
same,glycan array binding signal (z-score),[59],0.612
same,glycan array binding signal (z-score),[60],0.254

# Some of the entries above in another layout.
binder | measurement | setting | value
B1 | glycan array binding signal (z-score) | [39] | -0.065
same | glycan array binding signal (z-score) | [40] | 0.869
same | glycan array binding signal (z-score) | [41] | 1.88
same | glycan array binding signal (z-score) | [42] | -0.516
same | glycan array binding signal (z-score) | [43] | 0.038
same | glycan array binding signal (z-score) | [44] | -0.292
same | glycan array binding signal (z-score) | [45] | -1.54
same | glycan array binding signal (z-score) | [46] | 3.02
same | glycan array binding signal (z-score) | [47] | -1.05
same | glycan array binding signal (z-score) | [48] | 3.97
same | glycan array binding signal (z-score) | [49] | 0.173
same | glycan array binding signal (z-score) | [50] | -0.307
same | glycan array binding signal (z-score) | [51] | -0.396
same | glycan array binding signal (z-score) | [52] | 0.133
same | glycan array binding signal (z-score) | [53] | -1.53
